Reference: patent US11930815B1, “3,3′-(piperazine-1,4-diyl)bis(1-(naphthalen-2-yloxy)propan-2-ol) as insecticidal agent” (priority 2023, dated 2024)

Key:
[1] = test system: 4th instars of larvae of Spodoptera littoralis; assay: Insecticidal bioassay screening, castor leaf dip, 4th instar larvae; type: in vivo; conditions: 4th larvae of S. littoralis, 72 h; slope of the regression (LDP) line
Description: (§1) Five concentrations (200, 100, 50, 25, 12.5 ppm) were designed for this synthetic compound and the reference fenoxycarb compound as the dynamic ingredients based on ppm via diluting the commercial formulation.
(§2) In this experiment, castor leaves are immersed in each of the previously prepared concentrations of the components for 10 seconds and then left to dry for 60 minutes. Larvae of the second and fourth instars of each checked strain are prepared with treated leaves in gauze-covered glass containers for 72 hrs. An untreated control is made in which leaves are dipped in triton x-100 and distilled water only. Then the preserved leaves were removed & fresh, untreated leaves were provided for 72 hours. Three replicates (10 larvae each) were checked for each concentration. Daily inspection was carried out for all treatments and mortality percentages were recorded 3 days (72 hours) after treatment. The average mortality percentage was corrected employing Abbott's formula. The corrected mortality rate for each of the previously synthesized compounds is statistically calculated according to Finney (1970). Through this rate, the corresponding concentration test lines (LDP lines) are assessed. Fifty and ninety percent mortality are determined, and the regression values for the checked products were previously evaluated.

[2] = test system: 2nd instars of larvae of Spodoptera littoralis; assay: Insecticidal bioassay screening, castor leaf dip, 2nd instar larvae; type: in vivo; conditions: 2nd larvae of S. littoralis, 72 h; slope of the regression (LDP) line
Description: as §1, §2

Compound | slope ± SE [1] | slope ± SE [2]
OC(COc1ccc2ccccc2c1)CN1CCN(CC(O)COc2ccc3ccccc3c2)CC1 (stereo not shown) [Compound 9, 3,3′-(piperazine-1,4-diyl)bis(1-(naphthalen-2-yloxy)propan-2-ol)] | 0.231 ± 0.0823 | 0.293 ± 0.0862
CCOC(=O)NCCOc1ccc(Oc2ccccc2)cc1 [Fenoxycarb, reference compound] | 0.251 ± 0.082 | 0.238 ± 0.082
